Patent publication US20140128572 (published 2014)
Square brackets hold non-standard residues; d marks the D form. * marks the point of attachment. Asn(Trt) = N[C@@H](CC(=O)NC(c1ccccc1)(c1ccccc1)c1ccccc1)C(=O)O; Boc = CC(C)(C)OC(=O)*; tBu = CC(C)(C)*

Tests used:
[1] = peptide synthesis
[2] = Fmoc solid-phase peptide synthesis; Sieber resin; PyBOP (comparative SPPS); conditions: whole synthesis, scale 10 mmol
[3] = whole synthesis, scale of the general procedure 10 mmol

With “Boc-Ser(Bzl)-Phe-Pro-Ile-Leu-Pro-Pro-Glu(OBzl)-Glu(OBzl)-Tyr(Bzl)-Leu(OBzl)” the difficulty met ([1]; purification step) was “a large part of the solid was still in the form of a sticky gum-like solid” and the outcome ([1]; purification step) was “it was not possible to collect the obtained precipitate”.
In the case of H-LW(Boc)V[Asn(Trt)]S(tBu)-NH2, the crude mass ([1]; whole synthesis) was 2.6 g, the “crude purity (method not given)” value [1, 3] was 49% and the crude yield [1, 3] was “yield=31%”. The difficulty met [1, 3] was “a significant amount of these peptides precipitated during the process of extraction”, the crude yield ([2]; gross yield) was “gross yield=33%” and the crude mass [2] was 605 mg. For the same substance, the “crude purity (method not given)” value [2] was 57%.
